Measurements: patent US20230180754A1, “HETEROCYCLIC COMPOUNDS FOR THE CONTROL OF INVERTEBRATE PESTS” (priority 2020, published 2023)
Some results were stated once for a whole list of compounds, not compound by compound. For at least one compound, name, drawing or mass did not settle the structure.

Assays:
Type in all cases: in vivo
[1] = test system: cowpea aphid (Aphis craccivora); assay: Cowpea aphid (Aphis craccivora), spray on potted cowpea plants; conditions: 300 ppm; after 72 hours
[2] = test system: yellow fever mosquito (Aedes aegypti); conditions: 2500 ppm; larval mortality after 2 days
Protocol: For evaluating control of yellow fever mosquito (Aedes aegypti) the test unit consisted of 96-well-microtiter plates containing 200 μl of tap water per well and 5-15 freshly hatched A. aegypti larvae.
The active compounds were formulated using a solution containing 75% (v/v) water and 25% (v/v) DMSO. Different concentrations of formulated compounds or mixtures were sprayed onto the insect diet at 2.5 μl, using a custom-built micro atomizer, at two replications.
After application, microtiter plates were incubated at 28±1° C., 80±5% RH for 2 days. Larval mortality was then visually assessed.

[3] = test system: green peach aphid (Myzus persicae); assay: Green peach aphid (Myzus persicae), systemic artificial diet/membrane test; conditions: 2500 ppm; aphid mortality after 3 days
Excerpt: For evaluating control of green peach aphid (Myzus persicae) through systemic means the test unit consisted of 96-well-microtiter plates containing liquid artificial diet under an artificial membrane.
The compounds were formulated using a solution containing 75% v/v water and 25% v/v DMSO. Different concentrations of formulated compounds were pipetted into the aphid diet, using a custom-built pipette, at two replications.
After application, 5-8 adult aphids were placed on the artificial membrane inside the microtiter plate wells. The aphids were then allowed to suck on the treated aphid diet and incubated at about 23 ±1° C. and about 50 ±5% relative humidity for 3 days. Aphid mortality and fecundity was then visually assessed.

[4] = test system: southern armyworm (Spodoptera eridania), 2nd instar larvae; assay: Southern armyworm (Spodoptera eridania), 2nd instar larvae, sprayed lima bean plants; conditions: 300 ppm, 4 days after treatment
Excerpt: The active compounds were formulated by a Tecan liquid handler in 100% cyclohexanone as a 10′000 ppm solution supplied in tubes. The 10′000 ppm solution was serially diluted in 100% cyclohexanone to make interim solutions. These served as stock solutions for which final dilutions were made by the Tecan in 50% acetone:50% water (v/v) into 10 or 20m1 glass vials. A nonionic surfactant (Kinetic®) was included in the solution at a volume of 0.01% (v/v). The vials were then inserted into an automated electrostatic sprayer equipped with an atomizing nozzle for application to plants/insects. Lima bean plants (variety Sieva) were grown 2 plants to a pot and selected for treatment at the 1st true leaf stage. Test solutions were sprayed onto the foliage by an automated electrostatic plant sprayer equipped with an atomizing spray nozzle. The plants were dried in the sprayer fume hood and then removed from the sprayer. Each pot was placed into perforated plastic bags with a zip closure. Ten to 11 armyworm larvae were placed into the bag and the bags zipped closed. Test plants were maintained in a growth room at about 25° C. and about 20-40% relative humidity for 4 days, avoiding direct exposure to fluorescent light (14:10 light:dark photo-period) to prevent trapping of heat inside the bags. Mortality and reduced feeding were assessed 4 days after treatment, compared to untreated control plants.

[5] = test system: rice green leafhopper (Nephotettix virescens); assay: Rice green leafhopper (Nephotettix virescens), sprayed rice seedlings; conditions: 300 ppm; after 72 hours; adults
Protocol: Four to five-week old rice seedlings with cut upper leaf portion were cleaned and washed 24 hours before spraying. The active compounds were formulated in 1:1 acetone:water (vol:vol), and 0.01% vol/vol surfactant (Kinetic) was added. Potted rice seedlings were sprayed with 5-6 ml test solution, air dried, covered with Mylar cages and inoculated with 10 adults. Treated rice plants were kept at about 28-29° C. and relative humidity of about 50-60%. Percent mortality was recorded after 72 hours.

[6] = test system: boll weevil (Anthonomus grandis); assay: Boll weevil (Anthonomus grandis), microtiter plate insect diet test; conditions: 2500 ppm; egg and larval mortality after 5 days
Protocol: (§1) For evaluating control of boll weevil (Anthonomus grandis) the test unit consisted of 96-well-microtiter plates containing an insect diet and 5-10 A. grandis eggs. The compounds were formulated using a solution containing 75% v/v water and 25% v/v DMSO. Different concentrations of formulated compounds were sprayed onto the insect diet at 5 μl, using a custom-built micro atomizer, at two replications.
After application, microtiter plates were incubated at about 25±1° C. and about 75±5% relative humidity for 5 days. Egg and larval mortality was then visually assessed.

[7] = test system: orchid thrips (Dichromothrips corbetti); assay: Orchid thrips (Dichromothrips corbetti), floral-immersion technique; conditions: 300 ppm; 72 hours after treatment; adult thrips
Protocol: Dichromothrips corbetti adults used for bioassay were obtained from a colony maintained continuously under laboratory conditions. For testing purposes, the test compound was diluted in a 1:1 mixture of acetone:water (vol:vol), plus Kinetic at a rate of 0.01% v/v.
Thrips potency of each compound was evaluated by using a floral-immersion technique. Each orchid petal was dipped into treatment solution and allowed to dry in Petri dishes. Treated petals were placed into individual re-sealable plastic along with about 20 adult thrips. All test arenas were held under dark condition and a temperature of about 28° C. for duration of the assay. The percent mortality was recorded 72 hours after treatment.

[8] = test system: tobacco budworm (Heliothis virescens); assay: Tobacco budworm (Heliothis virescens), microtiter plate insect diet test; conditions: 2500 ppm; egg and larval mortality after 5 days
Protocol: as §1, with “of tobacco budworm (Heliothis virescens)” for “of boll weevil (Anthonomus grandis)”, “and 15-25 H. virescens” for “and 5-10 A. grandis”, “at 10” for “at 5”
After application, microtiter plates were incubated at about 28±1° C. and about 80±5% relative humidity for 5 days. Egg and larval mortality was then visually assessed.

[9] = test system: green soldier stink bug (Nezara viridula); assay: Green soldier stink bug (Nezara viridula), soybean pod spray test; conditions: 300 ppm; after 5 days; late 3rd instar
[10] = test system: diamond back moth (Plutella xylostella); assay: Diamond back moth (Plutella xylostella), cabbage leaf disc dip test; conditions: 300 ppm; 72 hours after treatment; 3rd instar larvae
Protocol: The active compound was dissolved at the desired concentration in a mixture of 1:1 (vol:vol) distilled water:acetone. Surfactant (Kinetic) was added at a rate of 0.01% (vol/vol). The test solution was prepared at the day of use. Cabbage leaf discs (60 mm in diameter) were dipped in test solution and air-dried. Treated leaves were placed in petri dishes lined with moistened filter paper and inoculated with ten 3rd instar larvae. Mortality was recorded 72 hours after treatment. Feeding damages were also recorded using a scale of 0-100%.

Measured: mortality in comparison with untreated controls

CC(Nc1nnc2c(C(F)(F)F)cc(Cl)cn12)c1ncnn1-c1ncccn1 (stereo not drawn) [I-13]
not listed: [8] | [9] | [10]
at least 50%: all other assays above

CC(c1ncnn1-c1ncccn1)N(C(=O)OCC1CC1)c1noc2c(C(F)(F)F)cc(C(F)(F)F)cc12 (stereo not drawn) [I-37]
at least 50%: all assays above

CC(Nc1nnc2c(Cl)cc(C(F)(F)F)cn12)c1ncnn1-c1ncccn1 (stereo not drawn) [I-12]
not listed: [5] | [8] | [10]
at least 50%: all other assays above
